Experimental data from paper PMC10987644.
No constants are given. Whether binding was seen depends on the method and setting. In cells and extracts the contact can be indirect. Some results given as binding are weak or reduced against the parent protein; the word gives no strength. For part of these data: Where a sequence is shown, tags or fusion partners need not be part of it. Each block holds one molecule with its values, some of them ahead of it.

Protein sequences, listed by entry. Tags and fused reporters are not part of them.
UniProt P11940: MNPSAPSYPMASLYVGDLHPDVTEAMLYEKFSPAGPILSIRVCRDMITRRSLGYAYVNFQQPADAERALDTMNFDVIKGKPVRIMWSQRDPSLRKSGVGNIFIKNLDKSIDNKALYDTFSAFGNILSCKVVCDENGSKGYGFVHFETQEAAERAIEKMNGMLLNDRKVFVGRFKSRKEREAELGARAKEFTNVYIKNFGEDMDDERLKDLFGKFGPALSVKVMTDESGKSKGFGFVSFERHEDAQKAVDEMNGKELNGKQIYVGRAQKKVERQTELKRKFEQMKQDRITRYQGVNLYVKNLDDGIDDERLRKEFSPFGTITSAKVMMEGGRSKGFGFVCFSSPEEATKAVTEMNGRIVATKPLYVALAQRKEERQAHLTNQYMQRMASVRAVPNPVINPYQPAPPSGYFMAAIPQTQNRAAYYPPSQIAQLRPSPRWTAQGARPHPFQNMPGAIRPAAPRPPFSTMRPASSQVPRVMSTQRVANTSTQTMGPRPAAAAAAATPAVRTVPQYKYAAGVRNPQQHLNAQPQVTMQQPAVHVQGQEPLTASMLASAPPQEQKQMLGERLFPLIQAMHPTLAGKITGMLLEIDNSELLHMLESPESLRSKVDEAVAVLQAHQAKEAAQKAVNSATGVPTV

Tests used:
[1] = target: T1, MEX-3 RNA binding family member A (MEX3A) (human) (UniProt A1L020); experiment: co-IP; MEX3A-IP from 293T and CRC (DLD-1) cell lysates, Western blotting; also in control and circMPP6-knockdown CRC cells (knock-down decreased the co-precipitated proteins)
T1 sequence: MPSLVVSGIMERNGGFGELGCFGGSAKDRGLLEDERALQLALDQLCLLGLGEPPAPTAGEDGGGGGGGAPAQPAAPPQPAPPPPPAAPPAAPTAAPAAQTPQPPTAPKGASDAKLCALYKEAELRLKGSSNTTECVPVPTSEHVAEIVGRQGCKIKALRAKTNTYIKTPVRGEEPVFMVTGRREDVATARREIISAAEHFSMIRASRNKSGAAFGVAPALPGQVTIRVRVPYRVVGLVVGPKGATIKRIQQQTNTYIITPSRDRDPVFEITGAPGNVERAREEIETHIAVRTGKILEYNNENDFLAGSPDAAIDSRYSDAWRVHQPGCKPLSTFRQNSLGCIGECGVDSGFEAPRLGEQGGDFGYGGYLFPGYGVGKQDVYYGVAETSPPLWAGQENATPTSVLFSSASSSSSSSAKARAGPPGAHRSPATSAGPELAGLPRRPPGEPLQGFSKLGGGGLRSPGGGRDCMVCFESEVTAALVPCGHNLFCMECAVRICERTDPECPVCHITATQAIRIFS

Flag-MEX3A (human) = target: T2, Flag-MEX3A (human) (UniProt A1L020); experiment: co-IP; Flag-IP of Flag-MEX3A and its KH-domain truncations from DLD-1 cells, Western blotting
T2 sequence: T1 sequence

[2] = target: T1, MEX-3 RNA binding family member A (MEX3A) (human); experiment: co-sedimentation; whole-cell lysate of control DLD-1 cells on a linear 5-30% (w/v) sucrose gradient, 12 h at 4 °C, 36,000 rpm, ten fractions, Western blotting
[3] = target: T1, MEX-3 RNA binding family member A (MEX3A) (human); experiment: co-sedimentation; whole-cell lysate of circMPP6-knockdown DLD-1 cells on a linear 5-30% (w/v) sucrose gradient, 12 h at 4 °C, 36,000 rpm, ten fractions, Western blotting

- binding [1]: binds
- binding (Flag-MEX3A (human)): binds
- binding [2]: binds
- binding [3]: binds weakly
Molecule: PABP1 (from UniProt P11940 1-636)

- binding [1]: binds
- binding (Flag-MEX3A (human)): binds
- binding [2]: binds
- binding [3]: binds weakly
B1: MOV10 (protein, UniProt Q9HCE1 1-1003)
chain: MPSKFSCRQLREAGQCFESFLVVRGLDMETDRERLRTIYNRDFKISFGTPAPGFSSMLYGMKIANLAYVTKTRVRFFRLDRWADVRFPEKRRMKLGSDISKHHKSLLAKIFYDRAEYLHGKHGVDVEVQGPHEARDGQLLIRLDLNRKEVLTLRLRNGGTQSVTLTHLFPLCRTPQFAFYNEDQELPCPLGPGECYELHVHCKTSFVGYFPATVLWELLGPGESGSEGAGTFYIARFLAAVAHSPLAAQLKPMTPFKRTRITGNPVVTNRIEEGERPDRAKGYDLELSMALGTYYPPPRLRQLLPMLLQGTSIFTAPKEIAEIKAQLETALKWRNYEVKLRLLLHLEELQMEHDIRHYDLESVPMTWDPVDQNPRLLTLEVPGVTESRPSVLRGDHLFALLSSETHQEDPITYKGFVHKVELDRVKLSFSMSLLSRFVDGLTFKVNFTFNRQPLRVQHRALELTGRWLLWPMLFPVAPRDVPLLPSDVKLKLYDRSLESNPEQLQAMRHIVTGTTRPAPYIIFGPPGTGKTVTLVEAIKQVVKHLPKAHILACAPSNSGADLLCQRLRVHLPSSIYRLLAPSRDIRMVPEDIKPCCNWDAKKGEYVFPAKKKLQEYRVLITTLITAGRLVSAQFPIDHFTHIFIDEAGHCMEPESLVAIAGLMEVKETGDPGGQLVLAGDPRQLGPVLRSPLTQKHGLGYSLLERLLTYNSLYKKGPDGYDPQFITKLLRNYRSHPTILDIPNQLYYEGELQACADVVDRERFCRWAGLPRQGFPIIFHGVMGKDEREGNSPSFFNPEEAATVTSYLKLLLAPSSKKGKARLSPRSVGVISPYRKQVEKIRYCITKLDRELRGLDDIKDLKVGSVEEFQGQERSVILISTVRSSQSFVQLDLDFNLGFLKNPKRFNVAVTRAKALLIIVGNPLLLGHDPDWKVFLEFCKENGGYTGCPFPAKLDLQQGQNLLQGLSKLSPSTSGPHSHDYLPQEREGEGGLSLQVEPEWRNEL

- binding [1]: binds
- binding (Flag-MEX3A (human)): binds
- binding [2]: binds
- binding [3]: binds weakly
B2: UPF1 (protein, UniProt Q92900 1-1129)
chain: MSVEAYGPSSQTLTFLDTEEAELLGADTQGSEFEFTDFTLPSQTQTPPGGPGGPGGGGAGGPGGAGAGAAAGQLDAQVGPEGILQNGAVDDSVAKTSQLLAELNFEEDEEDTYYTKDLPIHACSYCGIHDPACVVYCNTSKKWFCNGRGNTSGSHIVNHLVRAKCKEVTLHKDGPLGETVLECYNCGCRNVFLLGFIPAKADSVVVLLCRQPCASQSSLKDINWDSSQWQPLIQDRCFLSWLVKIPSEQEQLRARQITAQQINKLEELWKENPSATLEDLEKPGVDEEPQHVLLRYEDAYQYQNIFGPLVKLEADYDKKLKESQTQDNITVRWDLGLNKKRIAYFTLPKTDSGNEDLVIIWLRDMRLMQGDEICLRYKGDLAPLWKGIGHVIKVPDNYGDEIAIELRSSVGAPVEVTHNFQVDFVWKSTSFDRMQSALKTFAVDETSVSGYIYHKLLGHEVEDVIIKCQLPKRFTAQGLPDLNHSQVYAVKTVLQRPLSLIQGPPGTGKTVTSATIVYHLARQGNGPVLVCAPSNIAVDQLTEKIHQTGLKVVRLCAKSREAIDSPVSFLALHNQIRNMDSMPELQKLQQLKDETGELSSADEKRYRALKRTAERELLMNADVICCTCVGAGDPRLAKMQFRSILIDESTQATEPECMVPVVLGAKQLILVGDHCQLGPVVMCKKAAKAGLSQSLFERLVVLGIRPIRLQVQYRMHPALSAFPSNIFYEGSLQNGVTAADRVKKGFDFQWPQPDKPMFFYVTQGQEEIASSGTSYLNRTEAANVEKITTKLLKAGAKPDQIGIITPYEGQRSYLVQYMQFSGSLHTKLYQEVEIASVDAFQGREKDFIILSCVRANEHQGIGFLNDPRRLNVALTRARYGVIIVGNPKALSKQPLWNHLLNYYKEQKVLVEGPLNNLRESLMQFSKPRKLVNTINPGARFMTTAMYDAREAIIPGSVYDRSSQGRPSSMYFQTHDQIGMISAGPSHVAAMNIPIPFNLVMPPMPPPGYFGQANGPAAGRGTPKGKTGRGGRQKNRFGLPGPSQTNLPNSQASQDVASQPFSQGALTQGYISMSQPSQMSQPGLSQPELSQDSYLGDEFKSQIDVALSQDSTYQGERAYQHGGVTGLSQY
